Assay in all cases: pull-down
For test [1], the target named is H10CLPX E-domain (CLPXE) (human).
For test [2], the target named is H10CLPX Zinc binding domain (CLPXZBD) (human).
In test [3] the target is His10-tagged CLPX (H10CLPX) (human).
Test [4] deals with CLPX4A (full-length CLPX with residues 120 to 123 SSTR replaced with AAAA) (human).

These are yes or no findings as the source states them, for the method shown. In cells and extracts the contact can be indirect. For some assays here: A result given as binding can be weak or reduced; the word gives no strength. Sequences can lack the tags named with a protein.

B1: GST-PDIP38 (protein, UniProt Q9Y2S7 52-368)
chain: SSRNRPEGKVLETVGVFEVPKQNGKYETGQLFLHSIFGYRGVVLFPWQARLYDRDVASAAPEKAENPAGHGSKEVKGKTHTYYQVLIDARDCPHISQRSQTEAVTFLANHDDSRALYAIPGLDYVSHEDILPYTSTDQVPIQHELFERFLLYDQTKAPPFVARETLRAWQEKNHPWLELSDVHRETTENIRVTVIPFYMGMREAQNSHVYWWRYCIRLENLDSDVVQLRERHWRIFSLSGTLETVRGRGVVGREPVLSKEQPAFQYSSHVSLQASSGHMWGTFRFERPDGSHFDVRIPPFSLESNKDEKTPPSGLHW
In the case of B1, the binding result in test [1] was “no binding”; in test [2], “binds”; in test [3], “binds”.

B2: untagged PDIP38 (mature) (protein, UniProt Q9Y2S7 52-368)
chain: SSRNRPEGKVLETVGVFEVPKQNGKYETGQLFLHSIFGYRGVVLFPWQARLYDRDVASAAPEKAENPAGHGSKEVKGKTHTYYQVLIDARDCPHISQRSQTEAVTFLANHDDSRALYAIPGLDYVSHEDILPYTSTDQVPIQHELFERFLLYDQTKAPPFVARETLRAWQEKNHPWLELSDVHRETTENIRVTVIPFYMGMREAQNSHVYWWRYCIRLENLDSDVVQLRERHWRIFSLSGTLETVRGRGVVGREPVLSKEQPAFQYSSHVSLQASSGHMWGTFRFERPDGSHFDVRIPPFSLESNKDEKTPPSGLHW
On to B2, for which the binding result in test [4] was “no binding”; in test [2], “binds”; in test [3] it was “binds”.

B3: GST-PDIP38C (domain or fragment, UniProt Q9Y2S7 157-368)
chain: FLANHDDSRALYAIPGLDYVSHEDILPYTSTDQVPIQHELFERFLLYDQTKAPPFVARETLRAWQEKNHPWLELSDVHRETTENIRVTVIPFYMGMREAQNSHVYWWRYCIRLENLDSDVVQLRERHWRIFSLSGTLETVRGRGVVGREPVLSKEQPAFQYSSHVSLQASSGHMWGTFRFERPDGSHFDVRIPPFSLESNKDEKTPPSGLHW
B3: the binding entry in test [3] was “no binding”.

B4: GST-PDIP38N (domain or fragment, UniProt Q9Y2S7 52-153)
chain: SSRNRPEGKVLETVGVFEVPKQNGKYETGQLFLHSIFGYRGVVLFPWQARLYDRDVASAAPEKAENPAGHGSKEVKGKTHTYYQVLIDARDCPHISQRSQTE
For B4, the binding entry in test [3] is recorded as “binds”.

Source of the values: article doi:10.1101/2020.05.19.105320.
